Data published in the supplement of paper PMC12819154, “High-throughput peptide-centric local stability assay extends protein–ligand identification to membrane proteins, tissues and bacteria” (Nature Structural & Molecular Biology, 2025).
Some of the results follow. Most values lie at the level of the controls, where differences are scatter.

Amino acid sequences for entries named in this document (tags omitted). A change or cut given only in a name is not applied to a line headed by its entry.
UniProt Q78J03: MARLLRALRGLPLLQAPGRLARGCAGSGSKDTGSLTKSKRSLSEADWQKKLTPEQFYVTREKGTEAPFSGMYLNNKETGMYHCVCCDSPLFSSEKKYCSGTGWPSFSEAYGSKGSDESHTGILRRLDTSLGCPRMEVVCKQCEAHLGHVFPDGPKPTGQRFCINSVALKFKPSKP
UniProt Q80WW9: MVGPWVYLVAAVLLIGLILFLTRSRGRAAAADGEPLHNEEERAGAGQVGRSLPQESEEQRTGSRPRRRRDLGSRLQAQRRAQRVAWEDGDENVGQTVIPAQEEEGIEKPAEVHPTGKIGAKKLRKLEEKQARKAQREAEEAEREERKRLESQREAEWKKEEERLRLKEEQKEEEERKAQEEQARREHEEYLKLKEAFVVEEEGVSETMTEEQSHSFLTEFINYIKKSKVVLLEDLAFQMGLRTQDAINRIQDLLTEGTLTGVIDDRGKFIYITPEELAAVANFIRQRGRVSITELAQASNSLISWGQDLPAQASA
UniProt Q7TMY8: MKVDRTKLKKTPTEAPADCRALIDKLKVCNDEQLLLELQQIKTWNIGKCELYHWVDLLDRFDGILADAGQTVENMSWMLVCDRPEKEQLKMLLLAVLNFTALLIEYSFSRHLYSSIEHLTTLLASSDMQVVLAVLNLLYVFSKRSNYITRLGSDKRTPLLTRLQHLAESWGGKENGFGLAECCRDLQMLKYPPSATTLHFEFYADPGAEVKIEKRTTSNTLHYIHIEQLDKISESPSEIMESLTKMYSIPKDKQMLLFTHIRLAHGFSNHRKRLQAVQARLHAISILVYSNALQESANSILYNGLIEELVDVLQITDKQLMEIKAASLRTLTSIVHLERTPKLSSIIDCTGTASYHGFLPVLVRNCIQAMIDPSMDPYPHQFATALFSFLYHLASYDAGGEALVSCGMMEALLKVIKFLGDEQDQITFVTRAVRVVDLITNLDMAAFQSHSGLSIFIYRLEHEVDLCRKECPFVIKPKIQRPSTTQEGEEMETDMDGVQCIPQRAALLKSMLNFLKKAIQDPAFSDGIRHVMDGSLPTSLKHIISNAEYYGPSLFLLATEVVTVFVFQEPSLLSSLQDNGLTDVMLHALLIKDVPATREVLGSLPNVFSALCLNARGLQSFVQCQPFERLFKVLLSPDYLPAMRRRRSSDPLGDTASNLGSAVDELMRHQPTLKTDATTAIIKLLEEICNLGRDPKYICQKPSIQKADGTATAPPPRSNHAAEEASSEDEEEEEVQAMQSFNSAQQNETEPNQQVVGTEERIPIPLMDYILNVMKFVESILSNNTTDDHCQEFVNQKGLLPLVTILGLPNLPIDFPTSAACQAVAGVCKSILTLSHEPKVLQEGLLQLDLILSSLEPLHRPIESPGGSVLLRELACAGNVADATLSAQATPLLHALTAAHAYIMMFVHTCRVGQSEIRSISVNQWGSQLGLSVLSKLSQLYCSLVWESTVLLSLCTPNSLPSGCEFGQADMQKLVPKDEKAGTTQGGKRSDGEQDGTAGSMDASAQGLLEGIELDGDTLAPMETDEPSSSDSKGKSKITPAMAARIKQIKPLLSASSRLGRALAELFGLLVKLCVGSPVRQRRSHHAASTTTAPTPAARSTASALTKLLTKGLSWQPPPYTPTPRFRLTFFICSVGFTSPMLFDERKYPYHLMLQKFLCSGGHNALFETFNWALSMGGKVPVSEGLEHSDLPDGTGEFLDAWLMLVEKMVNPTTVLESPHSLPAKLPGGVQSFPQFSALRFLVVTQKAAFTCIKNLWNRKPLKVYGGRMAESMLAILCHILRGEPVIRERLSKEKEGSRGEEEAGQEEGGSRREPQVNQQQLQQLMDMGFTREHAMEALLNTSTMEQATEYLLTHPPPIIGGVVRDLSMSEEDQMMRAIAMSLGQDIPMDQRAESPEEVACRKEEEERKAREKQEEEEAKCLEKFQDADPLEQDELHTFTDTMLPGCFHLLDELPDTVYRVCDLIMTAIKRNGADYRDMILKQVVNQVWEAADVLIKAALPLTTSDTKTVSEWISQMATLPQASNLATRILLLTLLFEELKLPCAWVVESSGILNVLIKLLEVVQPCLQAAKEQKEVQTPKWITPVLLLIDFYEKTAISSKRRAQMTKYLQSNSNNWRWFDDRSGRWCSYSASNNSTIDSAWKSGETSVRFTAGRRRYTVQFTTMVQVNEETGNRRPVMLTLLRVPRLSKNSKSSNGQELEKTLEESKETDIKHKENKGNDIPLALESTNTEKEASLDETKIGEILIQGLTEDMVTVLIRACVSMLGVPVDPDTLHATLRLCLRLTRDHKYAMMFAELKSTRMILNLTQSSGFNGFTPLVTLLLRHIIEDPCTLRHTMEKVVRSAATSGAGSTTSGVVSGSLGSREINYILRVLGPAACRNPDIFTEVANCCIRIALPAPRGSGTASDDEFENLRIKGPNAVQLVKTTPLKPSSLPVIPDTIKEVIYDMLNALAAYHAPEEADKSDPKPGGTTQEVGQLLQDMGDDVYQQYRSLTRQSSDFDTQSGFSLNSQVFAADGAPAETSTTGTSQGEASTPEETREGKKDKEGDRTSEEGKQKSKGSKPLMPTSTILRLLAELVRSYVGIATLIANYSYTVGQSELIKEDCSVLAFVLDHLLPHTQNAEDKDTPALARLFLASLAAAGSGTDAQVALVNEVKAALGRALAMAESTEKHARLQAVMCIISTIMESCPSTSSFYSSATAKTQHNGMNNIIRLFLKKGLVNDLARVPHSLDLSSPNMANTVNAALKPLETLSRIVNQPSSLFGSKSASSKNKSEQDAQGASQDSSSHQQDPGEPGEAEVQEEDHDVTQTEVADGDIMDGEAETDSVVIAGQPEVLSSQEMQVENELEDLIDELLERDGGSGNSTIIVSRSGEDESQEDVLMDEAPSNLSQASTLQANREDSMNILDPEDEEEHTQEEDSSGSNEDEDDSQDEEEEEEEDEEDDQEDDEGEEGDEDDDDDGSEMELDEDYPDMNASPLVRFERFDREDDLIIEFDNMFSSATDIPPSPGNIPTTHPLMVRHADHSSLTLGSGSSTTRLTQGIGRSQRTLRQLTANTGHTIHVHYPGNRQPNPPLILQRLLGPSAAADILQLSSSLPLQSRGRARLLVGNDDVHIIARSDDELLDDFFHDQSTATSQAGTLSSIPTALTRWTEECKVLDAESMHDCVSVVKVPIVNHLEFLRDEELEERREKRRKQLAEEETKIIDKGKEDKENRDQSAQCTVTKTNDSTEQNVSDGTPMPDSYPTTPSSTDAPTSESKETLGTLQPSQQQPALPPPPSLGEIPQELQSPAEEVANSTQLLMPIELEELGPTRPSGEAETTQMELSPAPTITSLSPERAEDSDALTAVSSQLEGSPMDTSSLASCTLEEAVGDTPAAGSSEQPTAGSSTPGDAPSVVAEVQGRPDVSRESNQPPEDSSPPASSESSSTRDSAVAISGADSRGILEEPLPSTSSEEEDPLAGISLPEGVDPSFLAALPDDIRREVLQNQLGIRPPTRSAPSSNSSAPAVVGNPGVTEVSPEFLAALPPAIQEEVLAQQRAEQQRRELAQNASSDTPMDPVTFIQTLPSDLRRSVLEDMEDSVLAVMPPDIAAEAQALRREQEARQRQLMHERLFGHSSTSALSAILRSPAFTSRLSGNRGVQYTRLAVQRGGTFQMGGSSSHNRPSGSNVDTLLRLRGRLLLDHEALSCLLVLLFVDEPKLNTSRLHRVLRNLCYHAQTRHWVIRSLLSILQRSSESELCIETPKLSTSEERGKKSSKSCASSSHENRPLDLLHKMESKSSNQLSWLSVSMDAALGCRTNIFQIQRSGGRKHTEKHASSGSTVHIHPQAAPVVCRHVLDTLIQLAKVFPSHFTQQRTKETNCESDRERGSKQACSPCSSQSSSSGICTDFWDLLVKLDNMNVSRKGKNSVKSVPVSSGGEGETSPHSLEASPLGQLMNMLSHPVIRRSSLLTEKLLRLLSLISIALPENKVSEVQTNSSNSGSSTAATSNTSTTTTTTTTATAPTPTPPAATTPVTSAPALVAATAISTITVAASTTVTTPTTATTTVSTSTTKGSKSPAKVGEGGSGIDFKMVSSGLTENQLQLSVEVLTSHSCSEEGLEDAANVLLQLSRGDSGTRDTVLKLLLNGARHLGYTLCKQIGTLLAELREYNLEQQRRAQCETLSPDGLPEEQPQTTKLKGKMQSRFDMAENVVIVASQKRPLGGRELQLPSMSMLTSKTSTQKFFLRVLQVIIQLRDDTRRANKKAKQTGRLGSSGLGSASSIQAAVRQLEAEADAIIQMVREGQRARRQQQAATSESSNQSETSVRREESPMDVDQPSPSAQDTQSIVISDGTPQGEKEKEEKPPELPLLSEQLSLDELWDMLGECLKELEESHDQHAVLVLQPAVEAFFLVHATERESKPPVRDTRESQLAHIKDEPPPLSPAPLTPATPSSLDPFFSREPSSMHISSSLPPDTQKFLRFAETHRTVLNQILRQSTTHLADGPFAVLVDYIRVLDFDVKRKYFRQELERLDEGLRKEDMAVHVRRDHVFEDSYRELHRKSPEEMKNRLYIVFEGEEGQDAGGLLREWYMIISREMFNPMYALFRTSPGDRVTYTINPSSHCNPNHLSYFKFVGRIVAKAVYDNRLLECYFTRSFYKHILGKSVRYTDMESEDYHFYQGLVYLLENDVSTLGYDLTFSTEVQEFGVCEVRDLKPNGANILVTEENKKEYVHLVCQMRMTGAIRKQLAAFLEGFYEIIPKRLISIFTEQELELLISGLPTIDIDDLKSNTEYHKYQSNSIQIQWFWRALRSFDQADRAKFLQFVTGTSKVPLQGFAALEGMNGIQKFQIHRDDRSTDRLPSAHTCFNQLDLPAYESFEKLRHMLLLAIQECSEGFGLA
UniProt Q8BGG9: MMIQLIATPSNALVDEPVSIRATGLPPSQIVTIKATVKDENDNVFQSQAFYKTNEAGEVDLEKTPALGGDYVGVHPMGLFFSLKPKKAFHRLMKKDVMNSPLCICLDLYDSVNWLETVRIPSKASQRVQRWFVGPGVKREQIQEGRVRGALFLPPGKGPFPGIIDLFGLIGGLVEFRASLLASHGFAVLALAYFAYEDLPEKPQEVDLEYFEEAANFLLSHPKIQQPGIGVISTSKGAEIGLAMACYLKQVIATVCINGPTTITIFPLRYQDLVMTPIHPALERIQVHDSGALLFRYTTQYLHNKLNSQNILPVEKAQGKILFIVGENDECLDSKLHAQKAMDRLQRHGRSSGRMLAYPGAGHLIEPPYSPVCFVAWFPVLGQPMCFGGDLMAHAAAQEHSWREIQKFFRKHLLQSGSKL
UniProt Q6P1B1: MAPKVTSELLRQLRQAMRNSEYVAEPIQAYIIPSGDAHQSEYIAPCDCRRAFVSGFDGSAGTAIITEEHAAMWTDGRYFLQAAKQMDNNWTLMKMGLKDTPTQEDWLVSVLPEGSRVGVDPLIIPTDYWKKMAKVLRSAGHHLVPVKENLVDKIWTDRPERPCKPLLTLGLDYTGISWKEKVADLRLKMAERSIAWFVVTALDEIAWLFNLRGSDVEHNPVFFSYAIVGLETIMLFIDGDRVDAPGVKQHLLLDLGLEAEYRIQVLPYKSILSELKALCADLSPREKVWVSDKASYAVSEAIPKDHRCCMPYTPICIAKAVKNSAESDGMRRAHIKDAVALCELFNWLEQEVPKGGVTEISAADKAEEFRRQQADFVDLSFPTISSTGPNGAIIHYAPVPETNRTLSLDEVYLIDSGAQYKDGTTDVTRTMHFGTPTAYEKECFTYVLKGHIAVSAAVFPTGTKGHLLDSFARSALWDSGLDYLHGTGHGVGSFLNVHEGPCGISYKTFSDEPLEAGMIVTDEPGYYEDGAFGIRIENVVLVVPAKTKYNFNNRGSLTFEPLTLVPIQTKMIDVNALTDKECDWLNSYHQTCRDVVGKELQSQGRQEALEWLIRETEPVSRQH
UniProt Q8BGA8: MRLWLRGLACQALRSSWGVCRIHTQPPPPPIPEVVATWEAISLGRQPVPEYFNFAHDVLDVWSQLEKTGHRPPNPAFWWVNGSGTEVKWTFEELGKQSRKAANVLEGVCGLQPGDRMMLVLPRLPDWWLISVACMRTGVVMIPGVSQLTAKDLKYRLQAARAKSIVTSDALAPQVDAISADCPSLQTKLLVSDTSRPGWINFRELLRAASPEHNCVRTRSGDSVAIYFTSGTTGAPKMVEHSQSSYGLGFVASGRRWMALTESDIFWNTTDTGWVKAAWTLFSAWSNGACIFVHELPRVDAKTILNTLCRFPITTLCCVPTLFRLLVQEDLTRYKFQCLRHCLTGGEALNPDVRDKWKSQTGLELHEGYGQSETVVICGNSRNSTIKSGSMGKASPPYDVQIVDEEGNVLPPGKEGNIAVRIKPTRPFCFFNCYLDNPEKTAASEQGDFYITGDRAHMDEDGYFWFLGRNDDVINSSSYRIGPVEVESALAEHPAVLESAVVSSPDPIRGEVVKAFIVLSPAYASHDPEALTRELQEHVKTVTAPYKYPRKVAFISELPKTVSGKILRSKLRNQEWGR

compound: CN[C@@H]1C[C@H]2O[C@@](C)([C@@H]1OC)n1c3ccccc3c3c4c(c5c6ccccc6n2c5c31)C(=O)NC4 [staurosporine]; experiment: log2 fold change of pooled soluble protein (PISA), ligand vs vehicle (log2 ratio); higher = more thermally stabilized; settings: ligand concentration: 20 uM; assay format: PISA pool 52.9/55.5/58.6 C

**Q.** For UniProt Q80UP8, which “log2 fold change of pooled soluble protein” value (“log2 fold change” below) is on record?
**A.** -0.172

**Q.** With UniProt Q80TZ9 as the target, how does the “log2 fold change” value read?
**A.** -0.155

**Q.** For UniProt Q80YC5, which “log2 fold change” value is on record?
**A.** 0.0796

**Q.** UniProt Q80X50 was tested. Which “log2 fold change” value did it give?
**A.** -0.0296

**Q.** With UniProt Q80ZU5 as the target, how does the “log2 fold change” value read?
**A.** -0.0417

**Q.** With UniProt Q80Y81 as the target, how does the “log2 fold change” value read?
**A.** 0.00266

**Q.** How did the “log2 fold change” value turn out when UniProt Q6NZC7 was run?
**A.** 0.033

**Q.** For UniProt Q7TPE5, which “log2 fold change” value is on record?
**A.** 0.107

**Q.** For UniProt Q71RI9, which “log2 fold change” value is on record?
**A.** 0.0449

**Q.** For UniProt Q7TSG2, which “log2 fold change” value is on record?
**A.** 0.117

**Q.** How did the “log2 fold change” value turn out when UniProt Q80U93 was run?
**A.** 0.0153

**Q.** For UniProt Q78ZA7, which “log2 fold change” value is on record?
**A.** -0.00855

**Q.** Which “log2 fold change” value does the source give for UniProt Q78J03 here?
**A.** 0.103

**Q.** For UniProt Q80WW9, which “log2 fold change” value is on record?
**A.** -0.0679

**Q.** With UniProt Q6PAL7 as the target, how does the “log2 fold change” value read?
**A.** -0.102

**Q.** Which “log2 fold change” value does the source give for UniProt Q6PDQ2 here?
**A.** -0.0109

**Q.** For UniProt Q7TMY8, which “log2 fold change” value is on record?
**A.** -0.0202

**Q.** How did the “log2 fold change” value turn out when UniProt Q80U63 was run?
**A.** 0.54

**Q.** For UniProt Q8BFY6, which “log2 fold change” value is on record?
**A.** -0.141

**Q.** With UniProt Q8BFW7 as the target, how does the “log2 fold change” value read?
**A.** -0.121

**Q.** With UniProt Q7TMB8 as the target, how does the “log2 fold change” value read?
**A.** -0.292

**Q.** Which “log2 fold change” value does the source give for UniProt Q6PFD9 here?
**A.** -0.11

**Q.** How did the “log2 fold change” value turn out when UniProt Q8BGQ7 was run?
**A.** -0.00486

**Q.** For UniProt Q8BGG9, which “log2 fold change” value is on record?
**A.** 0.0411

**Q.** For UniProt Q811D0, which “log2 fold change” value is on record?
**A.** -0.00921

**Q.** How did the “log2 fold change” value turn out when UniProt Q80T85 was run?
**A.** 0.126

**Q.** With UniProt Q7TT28 as the target, how does the “log2 fold change” value read?
**A.** -0.274

**Q.** UniProt Q6P1B1 was tested. Which “log2 fold change” value did it give?
**A.** -0.0811

**Q.** UniProt Q8BG51 was tested. Which “log2 fold change” value did it give?
**A.** 0.0576

**Q.** With UniProt Q7TSG5 as the target, how does the “log2 fold change” value read?
**A.** 0.0379

**Q.** For UniProt Q80Y73, which “log2 fold change” value is on record?
**A.** 0.0972

**Q.** Which “log2 fold change” value does the source give for UniProt Q71LX4 here?
**A.** 0.0276

**Q.** With UniProt Q80YR4 as the target, how does the “log2 fold change” value read?
**A.** -0.224

**Q.** For UniProt Q6ZPJ0, which “log2 fold change” value is on record?
**A.** -0.136

**Q.** With UniProt Q8BGA8 as the target, how does the “log2 fold change” value read?
**A.** -0.0599
